According to PubChem BioAssay (NCATS):
Inconclusive results, whose numbers are uncertain, are shown with a selection of clear calls. Potencies of inconclusive entries are doubtful fits and often do not repeat. Active and inactive are the calls of the source. Calls come from the whole dose curve; as a rule, active = well fitted curve in the direction sought with a large enough effect; inconclusive = small, poorly fitted or top-dose-only effect, or another doubt; inactive = no such curve, though single readings can be large; an effect the other way counts as inactive or inconclusive.

Experiments:
[1] = Quantitative High-Throughput drug screen in 47 multiple myeloma cell lines against the NCATS MIPE library collection: KMS12BM_JCRB cell viability assay (AID 1918971); details: KMS12BM myeloma viability, CellTiter-Glo ATP, 48 h; series mostly up to 45.8 µM; note: nearly all actives have a fitted effect of over 35% in size
In short: (§1)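 qHTS of the MIPE 4.0 collection: 500 myeloma cells/well, 48 h drug exposure at 37C in 5% CO2, then CellTiter-Glo for 5 min at room temperature before luminescence reading.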

[2] = Quantitative High-Throughput drug screen in 47 multiple myeloma cell lines against the NCATS MIPE library collection: KMS20_JCRB cell viability assay (AID 1918973); details: CellTiter-Glo ATP, 48 h; viability (% of DMSO): at 45.8 µM (top of the series); note: nearly all actives have a fitted effect of over 45% in size
In short: (§2)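 Primary qHTS used for cherry-picking: cells at 500/well, library compounds for 48 h (37C, 5% CO2), luminescent ATP assay.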

[3] = Quantitative High-Throughput drug screen in 47 multiple myeloma cell lines against the NCATS MIPE library collection: MMM1_PLB cell viability assay (AID 1918976); note: nearly all actives have a fitted effect of over 35% in size
In short: (§3)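 Inhibition of viability over 48 h was scored by ATP content (CellTiter-Glo) in 500-cell wells. Zero and full viability were defined by media-only and DMSO-only wells.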

[4] = Quantitative High-Throughput drug screen in 47 multiple myeloma cell lines against the NCATS MIPE library collection: MOLP8_DSMZ cell viability assay (AID 1918977); details: MOLP8 myeloma viability, CellTiter-Glo ATP luminescence, 48 h; viability (% of control): at 45.8 µM (top of the series); note: nearly all actives have a fitted effect of over 45% in size
In short: as §3

[5] = Quantitative High-Throughput drug screen in 47 multiple myeloma cell lines against the NCATS MIPE library collection: OCIMY1_PLB cell viability assay (AID 1918979); note: nearly all actives have a fitted effect of over 35% in size
In short: as §3

[6] = Quantitative High-Throughput drug screen in 47 multiple myeloma cell lines against the NCATS MIPE library collection: MM1S_ATCC cell viability assay (AID 1918980); details: MM1S myeloma viability, CellTiter-Glo ATP luminescence, 48 h; viability (% of control): at 45.8 µM (top of the series); note: nearly all actives have a fitted effect of over 45% in size
In short: as §3

[7] = Quantitative High-Throughput drug screen in 47 multiple myeloma cell lines against the NCATS MIPE library collection: KMS12PE_JCRB cell viability assay (AID 1918972); note: nearly all actives have a fitted effect of over 30% in size
In short: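 Steps: seed 500 cells per well; pin-transfer MIPE 4.0 library; incubate 48 h at 37C, 5% CO2, humidified; add CellTiter-Glo, 5 min room temperature; read luminescence.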

[8] = Quantitative High-Throughput drug screen in 47 multiple myeloma cell lines against the NCATS MIPE library collection: KMS21BM_JCRB cell viability assay (AID 1918974); details: ATP luminescence, 48 h; viability: at 45.8 µM (top of the series) unless noted
In short: as §2

[9] = Quantitative High-Throughput drug screen in 47 multiple myeloma cell lines against the NCATS MIPE library collection: KMS26_JCRB cell viability assay (AID 1918975); details: KMS26 myeloma cells viability, CellTiter-Glo ATP, 48 h; viability (% of DMSO): at 45.8 µM (top of the series); note: nearly all actives have a fitted effect of over 45% in size
In short: as §1

[10] = Quantitative High-Throughput drug screen in 47 multiple myeloma cell lines against the NCATS MIPE library collection: NCIH929_DSMZ cell viability assay (AID 1918978); details: NCI-H929 myeloma viability, CellTiter-Glo ATP, 48 h; series mostly up to 45.8 µM; note: nearly all actives have a fitted effect of over 35% in size
In short: as §3
Potency is the fitted concentration of half-maximal effect.

Compound | Potency [1] | Potency [2] | Potency [3] | Potency [4] | Potency [5] | Potency [6] | Potency [7] | Potency [8] | Potency [9] | Potency [10]
CC(C)C(=O)Nc1ccc([N+](=O)[O-])c(C(F)(F)F)c1 | inactive | active: 7.43 µM | inconclusive: 0.0074 µM [rising, full curve] | inconclusive: 0.0019 µM [rising, full curve, poor fit] | inconclusive: 29.6 µM [rising, partial curve, poor fit] | active: 1.66 µM |  |  |  | 
CC(C)NCC(O)COc1ccc(CCOCC2CC2)cc1 (stereo unspecified) |  | inconclusive: 0.001 µM | inconclusive: 9.35 µM [cytotoxic, partial curve, poor fit] | inconclusive: 0.0021 µM [cytotoxic, full curve, poor fit] |  |  | inactive | inconclusive: 0.187 µM [rising, full curve, poor fit] | inactive | 
Cc1ccnc2c1NC(=O)c1cccnc1N2C1CC1 | inactive | inconclusive: 0.0012 µM [rising, full curve, poor fit] | inconclusive: 0.0017 µM [rising, full curve, poor fit] | inactive |  |  |  |  | inactive | inconclusive: 33.2 µM [cytotoxic, single point]
O=C(O)CCCCCC(=O)NN=C1CCCC1 | inconclusive: 3.32 µM [rising, partial curve, poor fit] | inconclusive: 0.001 µM [cytotoxic] | inconclusive: 0.0332 µM [rising, full curve, poor fit] | inactive | inactive | inactive |  |  | inactive | inconclusive: 33.2 µM [cytotoxic, single point]
Oc1ccc2ccccc2c1SSc1c(O)ccc2ccccc12 | inconclusive: 37.2 µM [cytotoxic, single point] |  |  | inconclusive: 9.35 µM [cytotoxic, full curve, poor fit] |  |  |  |  |  | 
O=C(O)[C@@H](c1ccc(OCc2ccc3ccccc3n2)cc1)C1CCCC1 | inactive | inactive | inconclusive: 4.69 µM [cytotoxic, partial curve, poor fit] |  | inactive | inactive |  | inconclusive: 29.6 µM [rising, single point] |  | 
C[C@@H]1CN(Cc2ccc(F)cc2)[C@@H](C)CN1C(=O)c1cc2c(C(=O)C(=O)N(C)C)cn(C)c2cc1Cl | inconclusive: 29.6 µM [cytotoxic, single point] | inconclusive: 26.4 µM [cytotoxic, single point] |  | inconclusive: 26.4 µM [cytotoxic, single point] |  | active: 10.5 µM |  |  |  | inconclusive: 1.05 µM [cytotoxic, full curve, poor fit]
O=c1c(-c2ccc(O)cc2)coc2cc(O[C@@H]3O[C@H](CO)[C@H](O)[C@H](O)[C@H]3O)ccc12 | inactive | inconclusive: 0.001 µM [cytotoxic] |  | inconclusive: 0.0047 µM [rising, full curve, poor fit] |  | inactive |  |  | inactive | inactive
O=[N+]([O-])c1ccc(Nc2ccccc2-c2ccccc2)c2nonc12 |  | inconclusive: 37.2 µM [cytotoxic, single point] | inconclusive: 37.2 µM [cytotoxic, single point] | inconclusive: 37.2 µM [cytotoxic, single point] |  | inconclusive: 0.0037 µM [rising, full curve, poor fit] | inconclusive: 20.9 µM [cytotoxic, partial curve] | inconclusive: 20.9 µM [cytotoxic, partial curve, poor fit] | inconclusive: 37.2 µM [cytotoxic, single point] | inconclusive: 37.2 µM [cytotoxic, partial curve, poor fit]
Nc1nc2ccc(OC(F)(F)F)cc2s1 |  | inactive |  | inconclusive: 1.48 µM [cytotoxic, full curve, poor fit] | inconclusive: 23.5 µM [cytotoxic, single point] |  | inactive | inconclusive: 4.18 µM [rising, partial curve, poor fit] | inconclusive: 2.96 µM [cytotoxic, full curve, poor fit] | inconclusive: 9.35 µM [cytotoxic, partial curve, poor fit]
CCN1CCC(n2cc(CNc3cc(Cl)c4ncc(C#N)c(Nc5ccc(F)c(Cl)c5)c4c3)nn2)CC1 |  | active: 16.6 µM |  | inconclusive: 2.35 µM [cytotoxic, partial curve, poor fit] | inconclusive: 14.8 µM [cytotoxic, partial curve, poor fit] |  | active: 8.33 µM | inconclusive: 14.8 µM [rising, partial curve, poor fit] |  | active: 20.9 µM

Part of the list above, tab-delimited:
Compound	Potency [1]	Potency [2]	Potency [3]	Potency [4]	Potency [5]	Potency [6]	Potency [7]	Potency [8]	Potency [9]	Potency [10]
Oc1ccc2ccccc2c1SSc1c(O)ccc2ccccc12	inconclusive: 37.2 µM [cytotoxic, single point]			inconclusive: 9.35 µM [cytotoxic, full curve, poor fit]						
C[C@@H]1CN(Cc2ccc(F)cc2)[C@@H](C)CN1C(=O)c1cc2c(C(=O)C(=O)N(C)C)cn(C)c2cc1Cl	inconclusive: 29.6 µM [cytotoxic, single point]	inconclusive: 26.4 µM [cytotoxic, single point]		inconclusive: 26.4 µM [cytotoxic, single point]		active: 10.5 µM				inconclusive: 1.05 µM [cytotoxic, full curve, poor fit]
